According to patent publication US5492802A, “Dye compounds and photographic elements containing such dyes” (Eastman Kodak Company, priority 1994, dated 1996):

Legend:
[1] = Dye stain in the B&W format; details: Table VII, various coating sets; for Stain (maximum absorbance): at the λmax on the same line, RP X-OMAT processing, 0.8 mmole/mole Ag; for Stain λmax: wavelength of the stain absorbance on the same line
[2] = Dye speed in the B&W format (spectral sensitization); details: Table VI, 0.8 mmole/mole Ag, various coating sets; for SR (sensitizing ratio): speed at λ-max minus intrinsic speed at 400 nm plus 200 (log E × 100)
[3] = Dye stain in the color format; details: Table VIII; for Stain (maximum absorbance): at the stain λmax on the same line, 0.4 mmole/mole Ag; for Stain λmax: wavelength of the stain on the same line
[4] = Dye speed in the color format (spectral sensitization); details: Table VIII, 0.4 mmole/mole Ag; for Speed / SR (sensitizing ratio): Kodak C-41 processing
[5] = coating set marked #, potassium salt

SMILES | Stain (maximum absorbance) [1] | Stain λmax [1] | λmax (sensitization) (nm) [2] | Stain (maximum absorbance) ([3]; set not marked #) | Stain λmax ([3]; set not marked #) | Speed ([4]; set not marked #) | Sensitization λmax ([4]; set not marked #) | SR (sensitizing ratio) [2] | further results
CCC(=Cc1oc2ccc(NC(=O)c3ccccc3O)cc2[n+]1CCC(C)S(=O)(=O)[O-])C=C1Oc2ccc(Cl)cc2N1CCCS(=O)(=O)O (stereo not drawn) [Dye I-16] | 32 OD × 10^3 and 42 OD × 10^3 | 508 and 540 | 541 | 10 OD × 10^3 | 510 | – | – | – | –
CCC(=Cc1oc2ccc(-c3ccccc3)cc2[n+]1CCS(=O)(=O)O)C=C1Oc2ccc(-c3ccccc3)cc2N1CCS(=O)(=O)[O-] [Dye C-4, reference compound] | 32 OD × 10^3 and 17 OD × 10^3 | 505 and 540 | – | – | 512 and 545 | 197 | 550 | – | –
O=S(=O)([O-])CCCN1C(=Cc2sc3ccc(-c4ccccc4)cc3[n+]2CCCS(=O)(=O)O)Sc2ccc(Cl)cc21 [Dye C-11, reference compound] | – | – | – | 68 OD × 10^3 | 465 | 186 | 470 | – | SR (sensitizing ratio) ([4]; set not marked #): 223
CCC(=Cc1oc2ccc(NC(=O)c3ccco3)cc2[n+]1CCCS(=O)(=O)O)C=C1Oc2ccc(Cl)cc2N1CCCS(=O)(=O)[O-] [Dye I-24] | 46 OD × 10^3 and 41 OD × 10^3 | 508 and 550 | – | 3 OD × 10^3 | 510 | 180 | 540 | – | –
CCC(=Cc1oc2ccc(NC(=O)c3ccco3)cc2[n+]1CCS(=O)(=O)O)C=C1Oc2ccc(NC(=O)c3ccco3)cc2N1CCS(=O)(=O)[O-] [Dye I-29] | 57 OD × 10^3 | 512 | – | 4 OD × 10^3 | 515 | 194 | 550 | – | –
CCC(=Cc1oc2ccc(-c3cccc(NC(C)=O)c3)cc2[n+]1CCC(C)S(=O)(=O)[O-])C=C1Oc2ccc(F)cc2N1CCCS(=O)(=O)O (stereo not drawn) [Dye I-14] | 44 OD × 10^3 | 505 | – | 8 OD × 10^3 | 508 | 176 | 540 | – | –
CCC(=Cc1oc2ccc(NC(C)=O)cc2[n+]1CCCS(=O)(=O)O)C=C1Oc2ccc(NC(C)=O)cc2N1CCCS(=O)(=O)[O-] [Dye C-7, reference compound] | – | – | – | 0 OD × 10^3 | – | – | – | – | SR (sensitizing ratio) ([4]; set not marked #): 204
CCC(=Cc1sc2ccc(NC(=O)c3ccccc3O)cc2[n+]1CCCS(=O)(=O)O)C=C1Sc2ccc(NC(=O)c3ccccc3O)cc2N1CCCS(=O)(=O)[O-] [Dye I-39] | – | – | – | 18 OD × 10^3 | 580 | 114 | 550 | – | SR (sensitizing ratio) ([4]; set not marked #): 151
CCC(=Cc1oc2ccc(-c3ccc(NC(C)=O)cc3)cc2[n+]1CCC(C)S(=O)(=O)[O-])C=C1Oc2ccc(Cl)cc2N1CCCS(=O)(=O)O (stereo not drawn) [Dye I-7] | 51 OD × 10^3 | 508 | 538 | – | – | – | – | 236 | –
CCC(=Cc1oc2ccc(-n3cccc3)cc2[n+]1CCCS(=O)(=O)O)C=C1Oc2ccc(F)cc2N1CCCS(=O)(=O)[O-] [Dye I-44] | 30 OD × 10^3 | 505 | 541 | – | – | – | – | – | Stain (maximum absorbance) ([3]; coating set marked #): 13 OD × 10^3; Stain λmax ([3]; coating set marked #): 510
CCC(=Cc1oc2ccc(NC(=O)c3ccc[nH]3)cc2[n+]1CCC(C)S(=O)(=O)O)C=C1Oc2ccc(Cl)cc2N1CCCS(=O)(=O)[O-] (stereo not drawn) [Dye I-31] | 24 OD × 10^3 and 20 OD × 10^3 | 510 and 540 | 548 | – | – | – | – | 247 | –
CCC(=Cc1oc2ccc(N3C(=O)C(C)=C(C)C3=O)cc2[n+]1CCCS(=O)(=O)O)C=C1Oc2ccc(N3C(=O)C(C)=C(C)C3=O)cc2N1CCCS(=O)(=O)[O-] [Dye C-9, reference compound] | 29 OD × 10^3 | 505 | 520 | – | – | – | – | 128 | –
CCC(=Cc1sc2ccc(-c3ccccc3)cc2[n+]1CCCS(=O)(=O)O)C=C1Sc2ccc(-c3ccccc3)cc2N1CCCS(=O)(=O)[O-] [Dye C-10, reference compound] | – | – | – | 65 OD × 10^3 | 582 | 142 | 630 | – | SR (sensitizing ratio) ([4]; set not marked #): 189
CCC(=Cc1oc2ccc(-c3ccco3)cc2[n+]1CCCS(=O)(=O)O)C=C1Oc2ccc(-c3ccco3)cc2N1CCCS(=O)(=O)[O-] [Dye I-50] | – | – | – | – | – | – | – | – | Sensitization λmax ([4]; coating set marked #): 560; Stain (maximum absorbance) ([3]; coating set marked #): > 100 OD × 10^3; Stain λmax ([3]; coating set marked #): 550
CCC(=Cc1oc2ccc(NC(=O)c3ccccc3)cc2[n+]1CCC(C)S(=O)(=O)[O-])C=C1Oc2ccc(Cl)cc2N1CCCS(=O)(=O)O (stereo not drawn) [Dye I-1] | 41 OD × 10^3 and 31 OD × 10^3 | 510 and 543 | 542 | – | – | – | – | 249 | –
CCC(=Cc1oc2ccc(NC(=O)c3cccs3)cc2[n+]1CCS(=O)(=O)O)C=C1Oc2ccc(NC(=O)c3cccs3)cc2N1CCS(=O)(=O)[O-] [Dye I-22] | 50 OD × 10^3 and 45 OD × 10^3 | 490 and 510 | 495 | – | – | – | – | 231 | –
CCC(=Cc1oc2ccc(-c3ccco3)cc2[n+]1CCCS(=O)(=O)O)C=C1Oc2ccc(Cl)cc2N1CCCS(=O)(=O)[O-] [Dye I-47, Anhydro-5-chloro-9-ethyl-5'-(furan-2-yl)-3,3'-di(3-sulfopropyl)oxacarbocyanine hydroxide potassium salt] | 39 OD × 10^3 | 510 | – | – | – | – | – | – | Sensitization λmax ([4]; coating set marked #): 560; Stain (maximum absorbance) [3, 5]: 35 OD × 10^3 and 19 OD × 10^3; Stain λmax [3, 5]: 512 and 560
CCC(=Cc1oc2ccc(NC(=O)c3ccc[nH]3)cc2[n+]1CCCS(=O)(=O)O)C=C1Oc2ccc(Cl)cc2N1CCCS(=O)(=O)[O-] [Dye I-32] | 47 OD × 10^3 and 35 OD × 10^3 | 510 and 490 | 546 | 7 OD × 10^3 | 510 | – | – | – | –
CCC(=Cc1oc2ccc(NC(=O)c3ccccc3)cc2[n+]1CCC(C)S(=O)(=O)[O-])C=C1Oc2ccc(F)cc2N1CCCS(=O)(=O)O (stereo not drawn) [Dye I-4] | 42 OD × 10^3 | 505 | 540 | – | – | – | – | 240 | –
CCC(=Cc1oc2ccc(-c3ccccc3)cc2[n+]1CCC(C)S(=O)(=O)O)C=C1Oc2ccc(Cl)cc2N1CCCS(=O)(=O)[O-] (stereo not drawn) [Dye C-1, reference compound] | 48 OD × 10^3 | 508 | 547 | 37 OD × 10^3 | 510 | – | – | – | –
CCC(=Cc1oc2ccc(NC(=O)c3c(O)cccc3O)cc2[n+]1CCCCS(=O)(=O)[O-])C=C1Oc2ccc(Cl)cc2N1CCCS(=O)(=O)O [Dye I-20] | 27 OD × 10^3 and 30 OD × 10^3 | 490 and 510 | 541 | – | – | – | – | 237 | –

Where “and” joins values, the source holds several entries; their conditions need not be identical. Equal entries are not always repeated. Structures can show the parent of a compound that is named as a salt.
